In patent US20250170093A1, “ENDOPLASMIC RETICULUM PROTEIN HYOU1-BINDING COMPOUND FOR INHIBITING ENDOPLASMIC RETICULUM-MITOCHONDRIAL INTERACTION AND USES THEREOF” (UIF (University Industry Foundation), Yonsei Univeristy, priority 2023, published 2025):
Substitutions are numbered along the chain they refer to. At least one structure is not confirmed: it was looked up by name or label, or the drawing left a doubt.

Experiments:
HYOU1 [1] = biological target: T1, HYOU1 (Homo sapiens, UniProt Q9Y4L1); assay: DARTS-western analysis in HUVEC lysate; format: binding; parameters: endogenous in cells; host or cells: HUVEC; conditions: HUVEC cell lysate
T1 sequence (Q9Y4L1 33-999): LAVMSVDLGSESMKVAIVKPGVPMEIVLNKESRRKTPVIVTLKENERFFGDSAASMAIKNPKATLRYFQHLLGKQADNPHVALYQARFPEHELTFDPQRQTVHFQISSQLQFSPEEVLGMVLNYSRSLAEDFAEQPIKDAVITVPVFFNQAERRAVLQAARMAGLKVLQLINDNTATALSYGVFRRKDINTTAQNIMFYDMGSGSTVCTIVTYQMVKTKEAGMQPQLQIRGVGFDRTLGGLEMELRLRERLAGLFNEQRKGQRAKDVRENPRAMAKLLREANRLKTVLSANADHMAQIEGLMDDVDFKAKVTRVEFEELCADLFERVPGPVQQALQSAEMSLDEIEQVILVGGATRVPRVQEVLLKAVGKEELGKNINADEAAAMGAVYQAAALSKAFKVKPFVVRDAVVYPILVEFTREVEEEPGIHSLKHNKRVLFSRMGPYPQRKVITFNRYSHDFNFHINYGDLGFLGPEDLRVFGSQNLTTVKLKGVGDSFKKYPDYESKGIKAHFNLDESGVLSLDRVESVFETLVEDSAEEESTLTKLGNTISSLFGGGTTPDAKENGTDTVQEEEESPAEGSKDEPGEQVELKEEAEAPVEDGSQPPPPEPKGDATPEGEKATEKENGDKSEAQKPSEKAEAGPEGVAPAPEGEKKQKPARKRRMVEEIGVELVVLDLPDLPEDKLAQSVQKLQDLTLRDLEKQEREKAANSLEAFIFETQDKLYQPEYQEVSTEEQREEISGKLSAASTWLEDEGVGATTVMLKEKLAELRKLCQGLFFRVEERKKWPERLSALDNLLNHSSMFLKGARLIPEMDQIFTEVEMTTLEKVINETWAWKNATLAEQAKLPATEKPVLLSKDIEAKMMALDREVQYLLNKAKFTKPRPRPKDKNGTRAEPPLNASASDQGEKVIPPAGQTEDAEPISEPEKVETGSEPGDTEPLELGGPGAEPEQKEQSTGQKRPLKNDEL
Protocol: HepG2 or HUVECs (1×10^7 cells) were lysed by homogenization in PBS buffer containing a protease/phosphatase inhibitor cocktail (½ tablet, 25 mL; Pierce), and the concentration of total proteins was determined by BCA assay. All steps were performed on ice to avoid premature protein degradation. The cell lysate (final protein concentration: 1 mg/mL, 100 μL) was aliquoted into a 1.5-mL tube and incubated with 0.01 to 10 μM CTS (in 1 μL DMSO) for 3 hours at 4° C. with gentle stirring. Pronase (non-specific protease) was then added (final concentration: 1 μg/mL) and reaction was performed for 10 minutes. After adding a 6×SDS buffer, the Pronase reaction was stopped by heating for 7 minutes.
DARTS-western analysis was used to validate HYOU1 as a target protein of CTS in the lysate of HUVECs. […] In addition, […] to degradation by Pronase (protease) in a dose-dependent manner, with an EC50 value calculated to be about 1 μM (FIG. 5B).

HUVECs [2] = assay: Mitochondrial calcium assay (Rhod-2) in HUVECs; format: cell-based, human; conditions: CTS-treated cells, Rhod2
Protocol: To measure calcium content in mitochondria or cytosol, HUVECs were cultured overnight at a density of 1.5×10^4 cells/well in a chamber slide (8-well) and incubated with Rhod-2/AM (2 μM) (Invitrogen, R1244) or Fluo-4/AM (1 μM) (Invitrogen, F14201), respectively, for 30 minutes at room temperature. The cells were then incubated in a calcium-free Krebs-Ringer-HEPES buffer (pH 7.4) additionally for 30 minutes for de-esterification of the dye. Images were captured in real time using an LSM980 confocal microscope (Zeiss, Oberkochen, Germany).
In addition, it was investigated whether intracellular calcium was released from the ER and imported into the mitochondria in response to oxLDL. Specifically, it was confirmed that, when the HUVECs were treated with oxLDL along with the Rhod-2 dye, which is a marker of mitochondrial calcium, mitochondrial calcium level was increased. In contrast, when HUVECs were pretreated with xestospongin C, which is an IP3R antagonist, and then treated with oxLDL, there was no increase in the mitochondrial calcium level (FIG. 1D). This means that the oxLDL-induced increase in mitochondrial calcium is derived from the endoplasmic reticulum (ER).
Furthermore, in order to investigate whether change in the physical coupling between the ER and mitochondria affects communications between cell organelles, Ca^2+ transport from the ER to mitochondria was examined. […]

GCaMP3-TRPML1 = assay: Lysosomal calcium release (GCaMP3-TRPML1); format: cell-based; conditions: compared to DMSO
HUVECs [3] = assay: LysoTracker Red staining of HUVECs; format: cell-based, human; conditions: CTS 5 μM, 48 hours
SQSTM1 and LC3 = assay: Western blot of autophagy markers in HUVECs; format: cell-based, human
HYOU1 [4] = biological target: T1, HYOU1; assay: DARTS-LC-MS/MS target identification in HepG2 membrane proteins; format: binding; parameters: membrane proteins were fractionated from a HepG2 cell lysate, subjected to DARTS; endogenous in cells; host or cells: HepG2 (membrane protein fraction of lysate); conditions: Pronase
MYC-HYOU1 (N410D) = biological target: T2, MYC-HYOU1 (N410D) (Homo sapiens, UniProt Q9Y4L1, N410D); assay: DARTS assay of HEK293 membrane protein pool, N410D mutant; format: binding; conditions: HEK293 transfected 48 hours
T2 construct: Myc-DDK; host or cells: HEK293
T2 sequence (Q9Y4L1 33-999 N410D): T1 sequence (Q9Y4L1 33-999) with N378D

RAW264.7 macrophages = assay: Foam cell formation (Oil Red O) in RAW264.7 macrophages; format: cell-based; conditions: oxLDL+CTS vs oxLDL, oxLDL+T II-A and oxLDL+DHT groups
MYC-HYOU1 (R217A) = biological target: T3, MYC-HYOU1 (R217A) (Homo sapiens, UniProt Q9Y4L1, R217A); assay: DARTS assay of HEK293 membrane protein pool, R217A mutant; format: binding; conditions: HEK293 transfected 48 hours
T3 construct: Myc-DDK; host or cells: HEK293
T3 sequence (Q9Y4L1 33-999 R217A): T1 sequence (Q9Y4L1 33-999) with R185A

HUVECs [5] = assay: Cytosolic calcium assay (Fluo-4) in HUVECs; format: cell-based, human; conditions: CTS-treated HUVECs
[6] = tested on: HUVECs transfected with MYC-HYOU1R217A or MYC-HYOU1N410D; assay: LC3 immunofluorescence of autophagosomes in HUVECs expressing HYOU1 mutants; format: cell-based, human; conditions: cells expressing HYOU1 mutants, treated with CTS
TFEB = TFEB nuclear translocation in HUVECs (fractionation, western blot); format: cell-based, human; conditions: CTS-treated HUVECs
HUVECs [7] = assay: Intracellular Dil-conjugated oxLDL level in HUVECs; format: cell-based, human
HUVECs [8] = assay: Transmission electron microscopy of ER and mitochondria in HUVECs; format: cell-based, human; conditions: CTS 5 μM
Text: First, HUVECs were imaged by transmission electron microscopy (TEM) to visualize the ER and mitochondria, and the ER-mitochondrial distance was observed. […] Increased contact between the ER and mitochondria can lead to cellular stress and dysfunction. CTS can help restore cellular homeostasis and prevent adverse effects associated with increased ER-mitochondrial interactions.

IP3R-VDAC1 [9] = assay: PLA (IP3R-VDAC1) assay in HUVECs; format: cell-based, human; conditions: oxLDL and CTS together
IP3R-VDAC1 [10] = assay: PLA (IP3R-VDAC1) assay in PAH cell model (TGF-β-treated PASMCs); format: cell-based, human; conditions: PASMCs treated with TGF-β, CTS (5 M)
HYOU1 [11] = biological target: T1, HYOU1; assay: Cellular thermal shift assay (CETSA) in HEK293 cells; format: binding; parameters: membrane proteins were fractionated from a HepG2 cell lysate, subjected to DARTS; endogenous in cells; host or cells: HepG2 (membrane protein fraction of lysate); conditions: HEK293 cells heated, CTS 20 μM

**Q.** C[C@H]1COC2=C1C(=O)C(=O)c1c2ccc2c1CCCC2(C)C [CTS, Cryptotanshinone] was tested. Which “proteolysis of HYOU1 by Pronase” value (HYOU1 [1]) did it give?
**A.** Its value is “inhibited”.

**Q.** What about the “histamine-induced calcium influx into mitochondria” value (HUVECs [2]) of the same compound?
**A.** Its value is “decreased”.

**Q.** And the “calcium release from lysosomes (GCaMP3-TRPML1)” value (GCaMP3-TRPML1)?
**A.** The value was “no significant change”.

**Q.** What about the “LysoTracker Red fluorescence (lysosomal activity)” value (HUVECs [3]) of the same compound?
**A.** Its value is “increase”.

**Q.** And the “expression level of LC3-II” value (SQSTM1 and LC3; CTS, 24, 48 and 72 hours)?
**A.** The value was “increased”.

**Q.** What about the “expression level of SQSTM1” value (SQSTM1 and LC3; CTS, 24, 48 and 72 hours) of the same compound?
**A.** Its value is “decreased”.

**Q.** What about the “expression level of LC3-II” value (SQSTM1 and LC3; chloroquine (CQ) together with CTS, vs CQ alone) of the same compound?
**A.** Its value is “increased”.

**Q.** And the “protection of HYOU1 against proteolysis on binding” value (HYOU1 [4])?
**A.** The value was “high level of protective activity”.

**Q.** And the “proteolysis of HYOU1 (N410D mutant)” value (MYC-HYOU1 (N410D))?
**A.** Its value is “did not inhibit”.

**Q.** What about the foam cell formation (RAW264.7 macrophages) of the same compound?
**A.** The foam cell formation was “significantly inhibited”.

**Q.** What about the “proteolysis of HYOU1 (R217A mutant)” value (MYC-HYOU1 (R217A)) of the same compound?
**A.** Its value is “did not inhibit”.

**Q.** What about the “cytosolic calcium (Fluo-4)” value (HUVECs [5]) of the same compound?
**A.** The value was “increased”.

**Q.** What about the “intensity of autophagosomes (LC3)” value [6] of the same compound?
**A.** Its value is “decreased”.

**Q.** And the “expression level of TFEB in the nucleus” value (TFEB)?
**A.** Its value is “increased”.

**Q.** What about the “ability of CTS to reduce lipid level” value (HUVECs [7]; CTS together with BafA1 (autophagy flux inhibitor)) of the same compound?
**A.** The value was “attenuated”.

**Q.** What about the “intracellular oxLDL level (Dil-oxLDL)” value (HUVECs [7]; vs control group) of the same compound?
**A.** The value was “significantly reduced”.

**Q.** And the “distance between ER-mitochondria” value (HUVECs [8])?
**A.** The value was “significantly increased”.

**Q.** And the mitochondrial area (HUVECs [8])?
**A.** The mitochondrial area was “unaffected”.

**Q.** What about the mitochondrial circularity (HUVECs [8]) of the same compound?
**A.** The mitochondrial circularity was “unaffected”.

**Q.** And the “number of PLA (IP3R-VDAC1) dots” value (IP3R-VDAC1 [9])?
**A.** Its value is “decreased”.

**Q.** And the “ER-mitochondrial interaction (PLA IP3R-VDAC1)” value (IP3R-VDAC1 [10])?
**A.** Its value is “decreased”.

**Q.** What about the “thermal degradation of HYOU1” value (HYOU1 [11]) of the same compound?
**A.** Its value is “inhibited”.
